Drawing on patent publication US20240279201A1, “DUAL WNT SIGNALING PATHWAY INHIBITORS AND AMPK ACTIVATORS FOR TREATMENTS OF DISEASE” (priority 2021, published 2024), this text covers solubility for one compound.

In general, solubility refers to the concentration that dissolves in the medium under given conditions. Read a high solubility as much dissolved substance.

The data set in a line: physchem. As to conditions: water. On the procedure: The ADMET and PK properties of YA6060 was determined.
Determination of physiochemical properties. The profiles of six selected analogs is estimated in silico, and selected Axin stabilizers are evaluated in in vitro assays: the aqueous solubility is determined using a multiscreen solubility filter plate (Millipore, Billerica, MA) coupled with LC-MS/MS, as performed for the already synthesized YA6060 analogs; the cell viability assays on selected analogs is measured using HEK293 cells; the intestinal permeability by determining the transport from the apical to the basolateral (A to B) in Caco-2 monolayers; the metabolic stability by incubating the compounds with mouse microsomes and liver tissue S9 fraction and analyzing by LC-MS/MS.

With `Cc1cc(/C=C/c2ccc3cc(N(C)C)ccc3[n+]2C)c(C)n1-c1ccccc1` [Pyr, reference compound], the solubility was less than 10 µg/mL.
